Measured values taken from PubChem BioAssay AID2762 (National Center for Advancing Translational Sciences (NCATS), 2010).
The shares of active, inactive and inconclusive entries below differ from those in the screen. Potencies beside an inconclusive call are fits to weak or partial responses and may not hold up. Active and inactive are the calls of the source. The call rests on the fitted dose curve; in most records, active means well fitted inhibition curve with a large enough effect; inconclusive means small, poorly fitted or top-dose-only effect, or effect the other way; inactive means no such curve, though single readings can be large or run the other way.

Sequences of proteins named here, by UniProt entry; tags and fusion partners are left off. A change or cut given only in a name is not applied to a line headed by its entry.
UniProt P51450: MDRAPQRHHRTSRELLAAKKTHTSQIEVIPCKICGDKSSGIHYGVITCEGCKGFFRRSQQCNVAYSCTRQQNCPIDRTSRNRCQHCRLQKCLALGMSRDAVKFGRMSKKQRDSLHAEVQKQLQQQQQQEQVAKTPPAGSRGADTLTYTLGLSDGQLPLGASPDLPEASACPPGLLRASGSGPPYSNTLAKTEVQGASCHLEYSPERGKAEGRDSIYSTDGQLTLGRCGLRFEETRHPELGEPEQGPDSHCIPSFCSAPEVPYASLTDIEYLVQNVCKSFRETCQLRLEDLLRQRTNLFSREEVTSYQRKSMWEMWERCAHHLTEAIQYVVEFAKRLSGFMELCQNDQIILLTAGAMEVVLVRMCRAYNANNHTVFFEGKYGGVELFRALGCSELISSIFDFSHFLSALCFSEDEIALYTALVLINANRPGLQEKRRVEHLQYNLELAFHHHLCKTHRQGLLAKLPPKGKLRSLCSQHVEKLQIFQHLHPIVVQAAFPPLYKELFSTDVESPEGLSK

Target: Nuclear receptor ROR-gamma (Mus musculus) (UniProt P51450)
Assay: Concentration response confirmation assay for inhibitors of ROR gamma transcriptional activity
Settings: Drosophila S2 Gal4-RORgamma UAS-luciferase, 20 h; series mostly up to 46.1 µM
Method in brief: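 ROR gamma transcriptional activity was tracked as Gal4-UAS luciferase output in stably transfected Drosophila Schneider cells, with compound added 1 hr before 700 uM copper sulfate induction and a 20 hr ambient-temperature incubation.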

SMILES | Potency
C=C(C)c1cccc(C(C)(C)NC(=O)N2CCN(CC)CC2)c1 | inactive
Cc1oc(-c2ccccc2Cl)nc1CSCC(=O)O | inconclusive: 11.2 µM [inhibitor, partial curve, poor fit]
Oc1ccc(/C=C/c2cc(O)cc(O)c2)cc1 | inconclusive: 3.97 µM [inhibitor, full curve, poor fit]
COc1cc(C)nc(-n2nc(C)cc2OC)n1 | inconclusive: 9.96 µM [inhibitor, full curve, poor fit]
COc1ccc(CNS(=O)(=O)c2ccc3c(c2)CCN3C(=O)C2CC2)cc1 | inconclusive: 31.5 µM [activator, partial curve]
CCn1cc(C(=O)O)c(=O)c2cnc(N3CCN(C(=S)NC(=O)c4ccccc4)CC3)nc21 | inconclusive: 15.8 µM [inhibitor, partial curve, poor fit]
O=C(CCCOc1ccccc1)Nc1nc2ccccc2[nH]1 | inconclusive: 25 µM [inhibitor, single point]
O=c1c2cc(Br)ccc2[nH]c(=S)n1Cc1cccnc1 | active: 11.2 µM
Cc1ccc(NC2=C(Cl)C(=O)OC2OC(=O)c2ccco2)cc1 (configuration not stated) | inconclusive: 0.0014 µM [activator, full curve, poor fit]
CCN1CCCc2cc(CN(CCN3CCOCC3)C(=S)Nc3ccccc3C)ccc21 | active: 9.96 µM
O=C1NC2=C(C(=O)CCC2)C(c2ccccc2)N1 (configuration not stated) | inactive
CNC(=O)NC(=O)CSc1nc2cc(C(=O)OC)ccc2c(=O)n1-c1ccccc1 | inconclusive: 5.6 µM [activator, partial curve]
